Data taken from PMC4577213.
Results are given in words; binding and its absence hold for the method and conditions named. Binding seen in cells or lysates may run through a third protein. A yes stands for co-enrichment or nearness to the bait. Other partners may have been found. Where a sequence is shown, tags or fusion partners need not be part of it.

By UniProt entry, the sequences of proteins in these tests, tags left out. Where a name states a change or a piece, a line headed by the entry shows the natural chain unless it says otherwise.
UniProt Q9W420: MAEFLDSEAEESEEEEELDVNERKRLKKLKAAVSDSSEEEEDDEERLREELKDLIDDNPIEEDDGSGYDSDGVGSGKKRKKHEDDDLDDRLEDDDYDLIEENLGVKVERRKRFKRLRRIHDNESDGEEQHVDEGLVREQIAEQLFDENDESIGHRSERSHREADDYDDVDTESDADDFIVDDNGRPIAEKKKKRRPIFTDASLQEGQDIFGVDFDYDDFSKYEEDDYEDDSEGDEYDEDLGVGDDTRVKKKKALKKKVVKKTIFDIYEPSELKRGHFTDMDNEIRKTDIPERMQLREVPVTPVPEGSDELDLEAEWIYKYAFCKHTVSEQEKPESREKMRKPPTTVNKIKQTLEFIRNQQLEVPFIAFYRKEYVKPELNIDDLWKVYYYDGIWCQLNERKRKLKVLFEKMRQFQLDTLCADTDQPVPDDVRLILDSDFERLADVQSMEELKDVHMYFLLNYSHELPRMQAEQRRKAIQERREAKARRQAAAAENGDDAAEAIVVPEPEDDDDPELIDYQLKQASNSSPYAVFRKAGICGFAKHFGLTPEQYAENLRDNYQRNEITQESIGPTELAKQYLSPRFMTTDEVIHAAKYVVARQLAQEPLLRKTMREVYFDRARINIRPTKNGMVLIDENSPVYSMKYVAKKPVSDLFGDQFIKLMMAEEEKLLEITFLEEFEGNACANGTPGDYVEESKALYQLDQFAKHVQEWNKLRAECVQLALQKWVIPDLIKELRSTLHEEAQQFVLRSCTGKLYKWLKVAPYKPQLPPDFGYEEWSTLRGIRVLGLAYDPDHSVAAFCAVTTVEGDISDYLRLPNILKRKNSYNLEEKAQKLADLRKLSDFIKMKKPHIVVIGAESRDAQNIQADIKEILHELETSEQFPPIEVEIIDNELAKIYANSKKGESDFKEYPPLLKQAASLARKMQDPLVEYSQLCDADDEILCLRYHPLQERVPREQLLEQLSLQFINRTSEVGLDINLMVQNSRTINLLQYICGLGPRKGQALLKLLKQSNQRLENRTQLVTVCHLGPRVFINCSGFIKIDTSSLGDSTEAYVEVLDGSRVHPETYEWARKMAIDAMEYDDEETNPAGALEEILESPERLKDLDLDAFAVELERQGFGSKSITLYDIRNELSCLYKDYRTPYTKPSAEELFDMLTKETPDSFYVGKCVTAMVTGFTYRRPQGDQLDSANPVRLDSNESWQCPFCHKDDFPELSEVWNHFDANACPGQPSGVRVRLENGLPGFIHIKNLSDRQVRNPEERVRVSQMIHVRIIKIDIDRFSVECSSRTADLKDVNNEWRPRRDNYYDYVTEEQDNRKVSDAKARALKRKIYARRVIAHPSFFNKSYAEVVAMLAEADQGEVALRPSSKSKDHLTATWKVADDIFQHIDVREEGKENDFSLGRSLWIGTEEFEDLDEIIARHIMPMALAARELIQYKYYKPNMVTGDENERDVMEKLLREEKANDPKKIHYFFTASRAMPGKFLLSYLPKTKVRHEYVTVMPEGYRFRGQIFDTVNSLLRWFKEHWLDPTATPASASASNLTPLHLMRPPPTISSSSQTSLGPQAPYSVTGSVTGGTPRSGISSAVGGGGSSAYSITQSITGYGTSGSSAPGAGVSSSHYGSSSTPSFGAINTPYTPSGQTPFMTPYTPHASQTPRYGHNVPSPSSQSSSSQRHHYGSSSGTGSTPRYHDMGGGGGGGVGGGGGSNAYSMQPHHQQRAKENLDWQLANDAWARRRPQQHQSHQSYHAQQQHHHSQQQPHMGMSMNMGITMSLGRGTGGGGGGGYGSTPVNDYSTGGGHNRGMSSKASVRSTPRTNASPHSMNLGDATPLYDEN
UniProt Q94517: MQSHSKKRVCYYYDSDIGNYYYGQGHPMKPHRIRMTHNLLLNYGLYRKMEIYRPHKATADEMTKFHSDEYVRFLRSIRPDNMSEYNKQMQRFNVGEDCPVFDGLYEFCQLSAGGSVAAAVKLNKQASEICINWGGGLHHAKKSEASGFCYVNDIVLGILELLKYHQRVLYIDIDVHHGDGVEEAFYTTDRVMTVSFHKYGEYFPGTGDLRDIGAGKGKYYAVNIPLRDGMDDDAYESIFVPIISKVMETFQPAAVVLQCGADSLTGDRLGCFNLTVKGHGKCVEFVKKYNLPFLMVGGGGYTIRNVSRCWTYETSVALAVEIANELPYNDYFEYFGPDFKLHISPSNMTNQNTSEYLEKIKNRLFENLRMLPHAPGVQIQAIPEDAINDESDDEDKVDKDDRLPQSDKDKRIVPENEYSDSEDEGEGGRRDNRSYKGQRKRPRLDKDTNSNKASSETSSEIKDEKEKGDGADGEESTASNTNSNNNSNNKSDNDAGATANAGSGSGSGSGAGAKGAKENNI
UniProt P45975: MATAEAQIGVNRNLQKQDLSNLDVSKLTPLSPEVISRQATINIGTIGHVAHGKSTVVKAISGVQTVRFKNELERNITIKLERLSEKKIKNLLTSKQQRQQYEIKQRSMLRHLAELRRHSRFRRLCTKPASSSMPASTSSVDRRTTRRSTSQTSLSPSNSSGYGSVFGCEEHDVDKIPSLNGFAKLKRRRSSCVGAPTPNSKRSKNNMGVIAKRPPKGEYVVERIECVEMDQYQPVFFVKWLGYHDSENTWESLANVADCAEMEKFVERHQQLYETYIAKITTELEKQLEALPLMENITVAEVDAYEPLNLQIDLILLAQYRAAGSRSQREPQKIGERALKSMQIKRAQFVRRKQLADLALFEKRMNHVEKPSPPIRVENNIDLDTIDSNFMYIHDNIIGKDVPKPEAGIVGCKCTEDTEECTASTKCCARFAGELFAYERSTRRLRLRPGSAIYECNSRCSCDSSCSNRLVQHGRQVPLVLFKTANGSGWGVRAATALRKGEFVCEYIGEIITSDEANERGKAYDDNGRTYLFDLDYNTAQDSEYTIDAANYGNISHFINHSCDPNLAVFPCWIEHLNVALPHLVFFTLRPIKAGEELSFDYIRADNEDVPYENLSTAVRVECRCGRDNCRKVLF
UniProt Q9V460: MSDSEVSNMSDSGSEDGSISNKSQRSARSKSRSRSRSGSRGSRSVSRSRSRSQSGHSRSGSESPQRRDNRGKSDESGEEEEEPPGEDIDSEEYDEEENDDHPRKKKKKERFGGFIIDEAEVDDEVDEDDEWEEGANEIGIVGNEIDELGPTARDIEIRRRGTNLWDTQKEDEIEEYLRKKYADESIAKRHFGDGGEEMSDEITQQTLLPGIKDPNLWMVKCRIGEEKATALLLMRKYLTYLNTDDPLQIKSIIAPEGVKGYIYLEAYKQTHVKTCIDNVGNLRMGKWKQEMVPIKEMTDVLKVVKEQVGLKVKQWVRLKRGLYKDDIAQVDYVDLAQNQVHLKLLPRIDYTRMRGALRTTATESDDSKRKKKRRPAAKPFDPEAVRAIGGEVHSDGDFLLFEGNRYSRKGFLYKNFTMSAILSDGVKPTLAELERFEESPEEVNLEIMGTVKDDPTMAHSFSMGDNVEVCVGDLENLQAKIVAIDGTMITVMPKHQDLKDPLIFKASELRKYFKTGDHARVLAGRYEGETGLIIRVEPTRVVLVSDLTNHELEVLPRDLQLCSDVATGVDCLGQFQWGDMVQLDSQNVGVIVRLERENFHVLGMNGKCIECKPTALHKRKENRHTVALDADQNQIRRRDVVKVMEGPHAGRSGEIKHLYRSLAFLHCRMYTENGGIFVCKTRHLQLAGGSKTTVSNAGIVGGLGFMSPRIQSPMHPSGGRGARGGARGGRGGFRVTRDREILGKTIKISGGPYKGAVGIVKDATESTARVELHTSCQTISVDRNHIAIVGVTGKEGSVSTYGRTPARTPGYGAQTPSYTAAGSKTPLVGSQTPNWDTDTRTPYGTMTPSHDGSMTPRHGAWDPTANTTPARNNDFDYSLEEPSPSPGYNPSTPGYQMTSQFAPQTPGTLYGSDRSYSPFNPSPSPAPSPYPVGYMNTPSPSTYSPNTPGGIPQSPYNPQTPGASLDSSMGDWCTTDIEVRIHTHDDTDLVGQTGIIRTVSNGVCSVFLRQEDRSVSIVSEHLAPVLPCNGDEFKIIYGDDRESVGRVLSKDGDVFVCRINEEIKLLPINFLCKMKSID

Molecular target: T1, V5-tagged RRP6 (D. melanogaster) (UniProt Q9VFF3)
T1 sequence: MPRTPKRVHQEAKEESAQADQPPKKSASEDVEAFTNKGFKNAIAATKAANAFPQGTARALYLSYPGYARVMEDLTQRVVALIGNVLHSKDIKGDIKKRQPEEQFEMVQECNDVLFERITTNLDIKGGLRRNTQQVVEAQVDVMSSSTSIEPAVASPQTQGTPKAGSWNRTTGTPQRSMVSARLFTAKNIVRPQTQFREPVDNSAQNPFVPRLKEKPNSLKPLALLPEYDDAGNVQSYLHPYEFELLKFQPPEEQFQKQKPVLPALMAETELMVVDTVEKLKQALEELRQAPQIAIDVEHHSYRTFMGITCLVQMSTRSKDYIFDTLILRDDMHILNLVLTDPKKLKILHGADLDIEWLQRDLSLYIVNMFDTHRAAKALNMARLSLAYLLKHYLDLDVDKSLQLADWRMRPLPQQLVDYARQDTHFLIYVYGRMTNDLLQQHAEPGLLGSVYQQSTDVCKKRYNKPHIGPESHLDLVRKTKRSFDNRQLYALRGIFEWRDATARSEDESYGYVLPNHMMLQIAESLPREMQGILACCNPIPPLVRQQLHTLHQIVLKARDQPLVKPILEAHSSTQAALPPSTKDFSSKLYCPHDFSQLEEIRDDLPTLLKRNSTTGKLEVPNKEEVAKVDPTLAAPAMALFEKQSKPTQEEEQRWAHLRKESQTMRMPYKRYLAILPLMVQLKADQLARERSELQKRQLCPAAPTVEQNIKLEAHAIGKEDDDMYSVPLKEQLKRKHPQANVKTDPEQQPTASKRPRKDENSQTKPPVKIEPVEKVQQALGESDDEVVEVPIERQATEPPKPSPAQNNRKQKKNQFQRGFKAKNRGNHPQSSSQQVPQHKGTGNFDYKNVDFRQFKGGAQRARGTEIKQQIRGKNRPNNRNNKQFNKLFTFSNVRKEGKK
Assay: affinity purification with mass spectrometry; anti-V5 immunoprecipitation from RNase A-digested nuclear extracts of S2 cells expressing RRP6-V5, LC/MS-MS; 'empty' S2 cells as negative control; FDR 0.01, minimum fold-difference 2

Substance | binding
transcription elongation factor SPT6 (from UniProt Q9W420 1-1831) | binds
RPD3 (from UniProt Q94517 1-521) (enzyme) | binds
SU(VAR)3-9 (from UniProt P45975 1-635) (enzyme) | binds
transcription elongation factor SPT5 (from UniProt Q9V460 1-1078) | binds
